Laboratory results published in the supplement of paper PMC6411743.
± gives the standard deviation of the averaged measurements. The list shows a part of the results.

By UniProt entry, the sequences of proteins in these tests, tags left out. Where a name states a change or a piece, a line headed by the entry shows the natural chain unless it says otherwise.
UniProt Q15596: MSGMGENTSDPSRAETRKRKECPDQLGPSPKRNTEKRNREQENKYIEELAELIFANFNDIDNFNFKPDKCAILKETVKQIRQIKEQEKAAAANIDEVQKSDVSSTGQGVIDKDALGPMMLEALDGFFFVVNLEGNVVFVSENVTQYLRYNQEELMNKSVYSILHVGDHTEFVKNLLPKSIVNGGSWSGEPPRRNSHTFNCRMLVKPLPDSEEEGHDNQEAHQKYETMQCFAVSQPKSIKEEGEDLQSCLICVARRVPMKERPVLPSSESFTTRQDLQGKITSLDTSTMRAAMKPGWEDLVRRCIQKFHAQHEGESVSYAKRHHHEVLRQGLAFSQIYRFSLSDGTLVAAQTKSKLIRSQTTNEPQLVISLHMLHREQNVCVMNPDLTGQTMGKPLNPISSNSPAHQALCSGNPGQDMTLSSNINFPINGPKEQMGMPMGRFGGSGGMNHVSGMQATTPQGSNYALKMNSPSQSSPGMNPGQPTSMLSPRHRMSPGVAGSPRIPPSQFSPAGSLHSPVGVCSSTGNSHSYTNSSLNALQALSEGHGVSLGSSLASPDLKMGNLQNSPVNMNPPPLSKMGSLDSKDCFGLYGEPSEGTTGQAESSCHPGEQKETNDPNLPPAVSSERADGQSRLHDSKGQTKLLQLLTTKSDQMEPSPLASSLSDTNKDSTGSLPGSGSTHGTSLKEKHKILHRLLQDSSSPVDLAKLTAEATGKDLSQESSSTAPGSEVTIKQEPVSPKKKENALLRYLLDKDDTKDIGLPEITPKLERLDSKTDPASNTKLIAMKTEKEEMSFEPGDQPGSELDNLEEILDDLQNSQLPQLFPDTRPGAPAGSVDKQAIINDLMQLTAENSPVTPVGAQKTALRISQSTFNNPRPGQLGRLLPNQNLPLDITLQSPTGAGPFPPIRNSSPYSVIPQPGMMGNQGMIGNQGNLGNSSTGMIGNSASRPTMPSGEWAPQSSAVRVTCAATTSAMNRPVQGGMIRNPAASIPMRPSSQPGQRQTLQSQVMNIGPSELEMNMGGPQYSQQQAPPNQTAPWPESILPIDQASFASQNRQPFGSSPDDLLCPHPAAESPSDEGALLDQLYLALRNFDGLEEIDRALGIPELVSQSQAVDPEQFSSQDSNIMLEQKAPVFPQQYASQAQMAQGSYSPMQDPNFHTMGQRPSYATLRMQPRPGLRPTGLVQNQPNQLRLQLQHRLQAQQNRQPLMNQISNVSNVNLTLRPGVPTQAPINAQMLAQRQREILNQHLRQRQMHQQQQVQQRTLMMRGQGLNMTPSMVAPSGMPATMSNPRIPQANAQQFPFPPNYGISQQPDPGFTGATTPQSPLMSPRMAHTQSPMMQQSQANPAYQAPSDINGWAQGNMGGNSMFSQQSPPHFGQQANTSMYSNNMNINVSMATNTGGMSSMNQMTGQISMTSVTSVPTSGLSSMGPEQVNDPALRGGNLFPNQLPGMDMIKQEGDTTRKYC
UniProt Q5T6F2: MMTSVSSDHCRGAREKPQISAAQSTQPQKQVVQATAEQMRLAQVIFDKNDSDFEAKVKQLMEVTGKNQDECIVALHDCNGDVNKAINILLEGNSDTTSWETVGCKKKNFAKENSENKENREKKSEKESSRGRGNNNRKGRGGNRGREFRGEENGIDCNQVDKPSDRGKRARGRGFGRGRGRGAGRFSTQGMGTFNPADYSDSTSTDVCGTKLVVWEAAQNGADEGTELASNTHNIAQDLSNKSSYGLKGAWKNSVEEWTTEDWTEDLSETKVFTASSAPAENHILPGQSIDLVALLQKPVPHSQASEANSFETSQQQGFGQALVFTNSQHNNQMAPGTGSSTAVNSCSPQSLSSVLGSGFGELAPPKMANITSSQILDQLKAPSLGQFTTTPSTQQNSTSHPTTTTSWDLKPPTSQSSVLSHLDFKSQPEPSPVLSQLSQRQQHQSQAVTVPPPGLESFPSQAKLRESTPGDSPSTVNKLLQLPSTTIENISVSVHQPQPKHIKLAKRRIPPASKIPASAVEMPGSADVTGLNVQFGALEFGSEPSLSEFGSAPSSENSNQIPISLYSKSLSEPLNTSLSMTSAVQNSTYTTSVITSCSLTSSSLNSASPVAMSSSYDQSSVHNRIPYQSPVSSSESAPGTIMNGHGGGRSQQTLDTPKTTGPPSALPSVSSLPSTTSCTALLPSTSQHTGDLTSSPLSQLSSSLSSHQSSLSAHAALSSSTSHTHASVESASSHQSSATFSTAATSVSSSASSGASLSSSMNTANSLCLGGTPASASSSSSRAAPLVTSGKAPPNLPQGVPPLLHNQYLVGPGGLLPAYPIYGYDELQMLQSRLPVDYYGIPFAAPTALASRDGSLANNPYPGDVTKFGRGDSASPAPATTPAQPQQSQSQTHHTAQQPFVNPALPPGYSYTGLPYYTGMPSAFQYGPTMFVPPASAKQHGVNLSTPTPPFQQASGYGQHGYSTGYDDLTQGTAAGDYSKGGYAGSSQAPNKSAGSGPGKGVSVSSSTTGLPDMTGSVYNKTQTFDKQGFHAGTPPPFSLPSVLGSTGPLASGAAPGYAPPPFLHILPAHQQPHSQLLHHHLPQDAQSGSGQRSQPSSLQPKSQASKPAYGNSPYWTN
UniProt Q5EBL8: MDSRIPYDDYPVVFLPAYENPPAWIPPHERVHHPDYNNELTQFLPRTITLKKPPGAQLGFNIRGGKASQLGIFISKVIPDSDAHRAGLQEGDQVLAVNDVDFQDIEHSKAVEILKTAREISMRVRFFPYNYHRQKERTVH
UniProt Q5T3J3: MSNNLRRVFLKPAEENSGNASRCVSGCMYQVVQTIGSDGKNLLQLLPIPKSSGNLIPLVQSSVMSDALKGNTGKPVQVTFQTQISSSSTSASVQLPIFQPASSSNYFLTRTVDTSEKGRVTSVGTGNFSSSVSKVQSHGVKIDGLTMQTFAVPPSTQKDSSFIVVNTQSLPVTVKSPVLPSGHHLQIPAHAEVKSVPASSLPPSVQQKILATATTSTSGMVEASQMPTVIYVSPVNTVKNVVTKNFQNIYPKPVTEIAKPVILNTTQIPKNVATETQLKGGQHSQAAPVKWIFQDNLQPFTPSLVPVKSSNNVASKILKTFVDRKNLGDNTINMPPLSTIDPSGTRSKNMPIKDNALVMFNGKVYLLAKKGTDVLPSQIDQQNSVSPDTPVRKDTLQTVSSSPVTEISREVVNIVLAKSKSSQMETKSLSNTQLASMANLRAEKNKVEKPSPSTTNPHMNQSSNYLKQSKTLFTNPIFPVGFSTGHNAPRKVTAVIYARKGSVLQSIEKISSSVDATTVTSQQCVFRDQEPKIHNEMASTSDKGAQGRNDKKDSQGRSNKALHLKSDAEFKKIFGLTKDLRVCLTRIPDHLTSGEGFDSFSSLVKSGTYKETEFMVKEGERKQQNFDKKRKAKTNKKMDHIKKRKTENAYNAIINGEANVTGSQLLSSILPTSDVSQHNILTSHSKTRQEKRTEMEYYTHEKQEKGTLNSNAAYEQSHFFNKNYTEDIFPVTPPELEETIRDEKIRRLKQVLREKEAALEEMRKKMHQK
UniProt Q27J81, whole entry: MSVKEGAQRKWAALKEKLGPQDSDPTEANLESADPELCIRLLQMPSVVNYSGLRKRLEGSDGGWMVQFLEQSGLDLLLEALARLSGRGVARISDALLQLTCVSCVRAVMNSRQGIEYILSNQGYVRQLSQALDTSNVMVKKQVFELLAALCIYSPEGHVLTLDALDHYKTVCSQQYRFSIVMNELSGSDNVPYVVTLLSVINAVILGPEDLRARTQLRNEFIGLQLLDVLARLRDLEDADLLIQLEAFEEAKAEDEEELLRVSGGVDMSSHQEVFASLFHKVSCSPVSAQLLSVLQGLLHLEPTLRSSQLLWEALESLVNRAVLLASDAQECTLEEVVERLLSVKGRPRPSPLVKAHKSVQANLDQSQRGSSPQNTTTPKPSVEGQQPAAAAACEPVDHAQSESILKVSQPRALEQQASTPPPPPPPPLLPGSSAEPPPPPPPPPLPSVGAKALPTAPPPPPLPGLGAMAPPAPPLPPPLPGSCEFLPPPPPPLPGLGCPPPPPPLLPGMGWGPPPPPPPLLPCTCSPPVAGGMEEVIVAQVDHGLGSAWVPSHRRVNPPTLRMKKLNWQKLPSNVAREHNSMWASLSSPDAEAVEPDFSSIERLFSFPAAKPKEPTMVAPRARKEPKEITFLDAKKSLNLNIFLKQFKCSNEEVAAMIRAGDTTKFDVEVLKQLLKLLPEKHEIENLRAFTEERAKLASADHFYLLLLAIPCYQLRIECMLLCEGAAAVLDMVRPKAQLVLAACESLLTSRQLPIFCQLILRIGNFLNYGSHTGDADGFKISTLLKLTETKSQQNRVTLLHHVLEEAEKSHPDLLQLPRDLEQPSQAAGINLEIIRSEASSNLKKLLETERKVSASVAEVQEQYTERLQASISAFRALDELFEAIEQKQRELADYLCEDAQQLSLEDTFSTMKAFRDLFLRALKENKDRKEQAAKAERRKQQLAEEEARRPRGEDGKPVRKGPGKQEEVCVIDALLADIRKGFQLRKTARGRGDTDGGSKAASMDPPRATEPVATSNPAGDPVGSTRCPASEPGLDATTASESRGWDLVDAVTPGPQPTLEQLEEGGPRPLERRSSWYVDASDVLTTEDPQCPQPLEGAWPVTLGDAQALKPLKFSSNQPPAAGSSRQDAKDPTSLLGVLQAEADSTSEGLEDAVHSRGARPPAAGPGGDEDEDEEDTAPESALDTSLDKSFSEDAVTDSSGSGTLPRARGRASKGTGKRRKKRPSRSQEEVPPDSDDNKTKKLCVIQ
UniProt Q15477, whole entry: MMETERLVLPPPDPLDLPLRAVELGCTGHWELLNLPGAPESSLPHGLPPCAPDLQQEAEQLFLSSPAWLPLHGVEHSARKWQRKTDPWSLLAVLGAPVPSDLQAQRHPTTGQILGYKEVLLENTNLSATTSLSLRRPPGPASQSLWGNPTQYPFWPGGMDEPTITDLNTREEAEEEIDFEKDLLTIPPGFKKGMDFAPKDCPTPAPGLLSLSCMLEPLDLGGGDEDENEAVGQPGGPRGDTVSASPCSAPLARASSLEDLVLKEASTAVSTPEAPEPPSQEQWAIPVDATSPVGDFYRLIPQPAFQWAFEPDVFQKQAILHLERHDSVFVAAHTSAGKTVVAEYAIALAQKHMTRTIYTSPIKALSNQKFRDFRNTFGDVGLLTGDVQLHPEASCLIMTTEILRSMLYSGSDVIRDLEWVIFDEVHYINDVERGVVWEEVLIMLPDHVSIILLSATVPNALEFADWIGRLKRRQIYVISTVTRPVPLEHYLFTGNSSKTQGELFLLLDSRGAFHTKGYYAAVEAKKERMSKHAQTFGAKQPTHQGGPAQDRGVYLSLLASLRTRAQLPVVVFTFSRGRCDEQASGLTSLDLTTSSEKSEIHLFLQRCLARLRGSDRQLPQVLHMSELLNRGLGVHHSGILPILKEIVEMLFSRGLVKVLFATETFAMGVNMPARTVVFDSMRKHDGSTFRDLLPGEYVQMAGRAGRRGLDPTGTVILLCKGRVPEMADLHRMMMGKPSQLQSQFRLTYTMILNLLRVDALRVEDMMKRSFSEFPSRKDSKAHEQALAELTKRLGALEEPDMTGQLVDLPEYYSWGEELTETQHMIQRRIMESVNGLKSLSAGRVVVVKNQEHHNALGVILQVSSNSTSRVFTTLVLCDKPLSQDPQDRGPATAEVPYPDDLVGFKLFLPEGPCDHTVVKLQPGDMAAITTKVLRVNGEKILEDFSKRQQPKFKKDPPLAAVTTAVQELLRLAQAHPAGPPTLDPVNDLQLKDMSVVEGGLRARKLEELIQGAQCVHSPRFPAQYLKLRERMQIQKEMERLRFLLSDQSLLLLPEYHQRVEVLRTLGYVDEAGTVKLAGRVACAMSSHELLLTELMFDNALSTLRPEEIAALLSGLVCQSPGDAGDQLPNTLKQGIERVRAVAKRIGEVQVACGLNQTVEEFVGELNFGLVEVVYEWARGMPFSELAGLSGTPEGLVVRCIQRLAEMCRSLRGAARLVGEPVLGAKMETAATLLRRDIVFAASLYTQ

Compound: Nc1nc2c(ncn2[C@@H]2O[C@H](COP(=O)(O)OP(=O)(O)OP(=O)(O)O)[C@@H](O)[C@H]2O)c(=O)[nH]1 [guanosine triphosphate]
Assay: NP40-soluble protein abundance relative to vehicle (solubility fold change) (ratio); higher = more soluble protein in presence of GTP
Procedure, shortened: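 Data come from three independent experiments in which Dounce-homogenised Jurkat crude lysate was treated at eight concentrations from 0.1 to 10 mM. Treatment ran 10 min at room temperature and then 3 min at 37 °C, after which 0.8% NP40 and benzonase were added for 60 min at 4 °C before ultracentrifugation. The supernatant underwent TMT labelling and LC-MS/MS, and vsn-normalised intensities were expressed as fold change against the detergent-processed vehicle in each replicate.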

Target	NP40-soluble protein abundance (concentration: 0.1mM)	NP40-soluble protein abundance (concentration: 0.5mM)	NP40-soluble protein abundance (concentration: 1mM)	NP40-soluble protein abundance (concentration: 2mM)	NP40-soluble protein abundance (concentration: 4mM)	NP40-soluble protein abundance (concentration: 6mM)	NP40-soluble protein abundance (concentration: 8mM)	NP40-soluble protein abundance (concentration: 10mM)
NCOA2 (UniProt Q15596)	1.07 ± 0.094	1.02 ± 0.03	1.08 ± 0.16	1.03 ± 0.11	0.967 ± 0.11	0.984 ± 0.033	1.01 ± 0.095	1.04 ± 0.086
UBAP2 (UniProt Q5T6F2)	0.954 ± 0.05	0.928 ± 0.04	0.97 ± 0.048	0.928 ± 0.076	0.938 ± 0.071	0.975 ± 0.086	0.984 ± 0.039	1.01 ± 0.079
UniProt Q5EBL8 and related entries	1.14 ± 0.086	1.02 ± 0.091	1.23 ± 0.15	1.24 ± 0.07	1.24 ± 0.19	1.13 ± 0.13	1.3 ± 0.048	1.26 ± 0.066
UniProt Q5T4S7 and related entries	1.07 ± 0.081	1.13 ± 0.15	1.15 ± 0.19	1.21 ± 0.22	1.25 ± 0.25	1.24 ± 0.27	1.24 ± 0.27	1.18 ± 0.25
UniProt Q5T3J3	1.05 ± 0.038	0.982 ± 0.022	1.19 ± 0.074	1.233 ± 0.01	1.32 ± 0.036	1.36 ± 0.019	1.49 ± 0.12	1.59 ± 0.1
UniProt Q27J81-2|Q27J81	1.02 ± 0.026	0.99 ± 0.013	1 ± 0.033	0.987 ± 0.03	0.988 ± 0.058	0.975 ± 0.013	1.007 ± 0.0058	0.972 ± 0.038
SKIV2L (UniProt Q15477)	0.966 ± 0.097	1.01 ± 0.068	0.992 ± 0.073	1.02 ± 0.038	1 ± 0.075	1.02 ± 0.1	0.97 ± 0.074	1.04 ± 0.063
